“Also recorded” adds a separate entry of the source. Read-outs that look alike come from different tables or passages of the source. Not every detail of the peptide structures is certain; ends, links or a residue may be inferred. Some compounds share one wording; it may come from a single statement. Positions of bridges follow the written chain, without caps; N, C: chain ends. Residues, ends and D or L forms follow the SMILES beside them. No end group written: not given here.
Experiments:
Erk½ (MAPK42/44) = test: Erk½ activation (phospho/total Erk½, Western blot) in RINm5F cells; type: cell-based, rat; conditions: for Erk½ activation, comparison between peptides: RINm5F cells
Pdx-1 = Pdx-1 mRNA expression in HPDE cells by qPCR (differentiation assay); type: cell-based, human; conditions: 167 nM, 15 minutes, mean±SEM, n=4
[1] = tested on: STZ (streptozotocin)-induced diabetes; type: in vivo, mice
Procedure: In this part of the study, we used a well established model of STZ (streptozotocin)-induced diabetes, resulting in a substantial destruction of beta cell mass. Previous studies conducted in our lab have shown islet neogenic effects of INGAP-peptide (15 L) and INGAP protein after the 8-week administration daily.
Referring to FIG. 42, C57BL/6 J mice (Charles River) 20-25 g, were rendered diabetic by a single injection of 150 mg/kg of STZ. The animals with blood glycemias of 15-30 mM after 7 days were used for the experiment. At 7 days, mice were randomized into 5 groups, 10 mice per group, equal representation of each glycemia level, (average glycemia per group being 24.4+0.0167 mM) and were treated with […] of one of the analogs, IP, daily for 10 weeks. Blood glycemia values were taken weekly from the tip of the tail (fasting and/or non-fasting). The weight of animals was also taken weekly.
After 10 weeks of treatment, the animals were sacrificed and the pancreata were weighed and processed for RNA extraction (still ongoing) and Immunocytochemistry.

RINm5F cells [2] = test: Cell viability assay (cell count normalized to protein), RINm5F cells, 48 h; type: cell-based, rat
RINm5F cells [3] = test: BrdU immunostaining, 15L vs 15C INGAP, RINm5F cells; type: cell-based, rat; conditions: incubated overnight, BrdU last 3 hours
ERK = test: Western blot for phospho-ERK, 15L vs 15C INGAP time course; type: cell-based, rat; conditions: 10×
RIN-m5F cells [4] = test: BrdU incorporation (proliferation) in RIN-m5F cells, 24 h; type: cell-based, rat; conditions: 835 nM, most effective concentration
Procedure: (A): INGAP increased BrdU incorporation. RIN-m5F cells were treated with indicated amounts of INGAP-P or r-INGAP for 24 h in chamber slides. Exendin 4 (Ex4) and EGF were used as controls. 50 μM BrdU was added for the last three hours of treatment followed by fixation in methanol and immunostaining for BrdU. Data are presented as a ratio of BrdU(+) cells (%) in INGAP-treated to untreated control. Results are means±S.E. of three independent experiments (*: p<0.05, §: p<0.001, compared to untreated control). (B): INGAP induced phosphorylation of Erk½ in RIN-m5F. RIN-m5F cells (1×10^6) plated in 60 mm tissue culture plates were treated with INGAP for the times indicated. Blots (30 μg protein) were probed with anti-Erk½-Phospho (Thr202/Tyr204) antibody, followed by stripping/reprobing with anti-total Erk½ antibody (Cell Signaling) and quantified by densitometry, using ImageJ software. (C): Quantification of relative Erk½ phosphorylation measured as a ratio of Phospho-Erk½ to total Erk½ and shown as a Fold Change relative to the 0 min time point. […]
Cells plated in 8-well or 4-well chamber slides (5×10^4 or 1×10^5 cells per well) were treated for 24 h with INGAP, EGF or Ex 4, as described above, and 50 μM BrdU was added during the last 3 hours of treatment. […] BrdU-positive and negative nuclei were counted (total 200 per well) and the percentage of BrdU-positive nuclei was calculated (FIG. 36).

Ras = Ras activation by Ras-GTP ELISA in RIN-m5F cells; type: cell-based, rat
Akt = Akt phosphorylation in RIN-m5F cells; type: cell-based, rat; conditions: time course
RIN-m5F cells [5] = conditions: previous study, cited from earlier work
[6] = once-daily injections for 3 months, cited from earlier work
pancreatic islets = conditions: cited from earlier work
Erk½ = Erk½ activation time course by the four analogs in RINm5F cells; type: cell-based, rat; conditions: 10× (1.67 mM), up to 3 h

Molecule | Erk½ activation, comparison between peptides (Erk½ (MAPK42/44)) | Pdx-1 mRNA expression, fold-change of the time-matched untreated control (Pdx-1) | Histologic characteristics of the pancreas (H&E), islet neogenesis ([1]; after 10 weeks of treatment) | Average Count/Protein Concentration (RINm5F cells [2]) | Average Percentage of BrdU Stained Cells (%) (RINm5F cells [3]) | ERK V2 Phosphorylation (Western Blot), Average (ERK; 5 min) | ERK V2 Phosphorylation (Western Blot), Exp 1 (ERK; 5 min) | ERK V2 Phosphorylation (Western Blot), Exp 2 (ERK; 5 min) | ERK V2 Phosphorylation (Western Blot), Exp 3 (ERK; 5 min) | ERK V2 Phosphorylation (Western Blot), Average (ERK; 10 min) | ERK V2 Phosphorylation (Western Blot), Exp 1 (ERK; 10 min) | ERK V2 Phosphorylation (Western Blot), Exp 2 (ERK; 10 min) | ERK V2 Phosphorylation (Western Blot), Exp 3 (ERK; 10 min) | ERK V2 Phosphorylation (Western Blot), Average (ERK; 30 min) | ERK V2 Phosphorylation (Western Blot), Exp 1 (ERK; 30 min) | ERK V2 Phosphorylation (Western Blot), Exp 2 (ERK; 30 min) | ERK V2 Phosphorylation (Western Blot), Exp 3 (ERK; 30 min) | ERK V2 Phosphorylation (Western Blot), Average (ERK; 60 min) | ERK V2 Phosphorylation (Western Blot), Exp 1 (ERK; 60 min) | ERK V2 Phosphorylation (Western Blot), Exp 2 (ERK; 60 min) | also measured
IWIGLHDPSHGTLPNGSGW [INGAP-19, N′-IWIGLHDPSHGTLPNGSGW-C′] | more effective than INGAP-P or INGAP-PC | not significant | islet cell neogenesis |  |  |  |  |  |  |  |  |  |  |  |  |  |  |  |  |  | Erk½ activation at 1× concentration relative to 15-mer peptide at 10× concentration (Erk½ (MAPK42/44); 1× 167 nM vs 10× 1.67 μM): about 2.5 times; Erk½ activation relative to rINGAP (Erk½ (MAPK42/44); 10 min): approximately double; Erk½ activation relative to INGAP-P 15-mer (Erk½ (MAPK42/44); same concentration, 10 min): 3 times
CC[C@H](C)[C@@H]1NC(=O)[C@@H](N)CSSC[C@@H](C(=O)O)NC(=O)[C@H](CO)NC(=O)CNC(=O)[C@H](CC(N)=O)NC(=O)[C@@H]2CCCN2C(=O)[C@H](CC(C)C)NC(=O)[C@H]([C@@H](C)O)NC(=O)CNC(=O)[C@H](Cc2c[nH]cn2)NC(=O)[C@H](CO)NC(=O)[C@@H]2CCCN2C(=O)[C@H](CC(=O)O)NC(=O)[C@H](Cc2c[nH]cn2)NC(=O)[C@H](CC(C)C)NC(=O)CNC1=O [INGAP-PC, N′-CIGLHDPSHGTLPNGSC-C′] (H-CIGLHDPSHGTLPNGSC-OH; disulfide 1-17) | cyclization alone did not increase activity of INGAP-P | 1.89±0.33 fold | islet cell neogenesis | 656227.27 | 16.19% | 1.01 | 0.65 | 0.92 | 1.47 | 1.80 | 1.29 | 2.24 | 1.86 | 2.85 | 2.09 | 3.68 | 2.79 | 1.28 | 1.70 | 1.70 | ERK V2 Phosphorylation (Western Blot), Exp 3 (ERK; 60 min): 1.21; Animals that did not show any islets on the sections studied ([1]; after 10 weeks of treatment): 40%; Animals with neogenesis features (H&E sections) ([1]; after 10 weeks of treatment): 60%
IGLHDPSHGTLPNGS [INGAP-P, N′-IGLHDPSHGTLPNGS-C′, reference compound] |  | 3.49±0.70 fold | islet cell neogenesis | 487593.75 | 9.69% | 1.16 | 0.84 | 1.71 | 0.92 | 1.30 | 1.02 | 1.48 | 1.41 | 1.05 | 0.73 | 1.21 | 1.19 | 1.15 | 0.70 | 1.29 | BrdU incorporation, increase compared to negative control (PBS, equal to 1) (RIN-m5F cells [4]): 1.8 ×; Ras activation (Ras): rapid Ras activation; Akt phosphorylation (Akt): increase in Akt phosphorylation after 30 min of treatment; ERK V2 Phosphorylation (Western Blot), Exp 3 (ERK; 60 min): 1.47; Effect on proliferation and Erk½ at lower concentration (RIN-m5F cells [5]; 16.7 nM): no effect; Increase in proliferation of RIN-m5F (BrdU assay) (RIN-m5F cells [5]; after 24 h): 60%; Concentration at which the effect on proliferation and Erk½ was observed (RIN-m5F cells [5]): ≥ 167 nM; Glycosylated hemoglobin (HbA1c) decrease ([6]; T1DM patients, p<0.06): −0.4%; Stimulated C-peptide secretion ([6]; T1DM patients): statistically significant increase; Glycosylated hemoglobin (HbA1c) decrease ([6]; T2DM patients, p<0.0125): −0.6%; C-peptide levels ([6]; T2DM patients): trend towards increased C-peptide levels; Increase in islet number (pancreatic islets; after 10 consecutive days of administration): 30%; Number of islets in the tissues (pancreatic islets; by 30 days): doubling of the number of islets
CC[C@H](C)[C@@H]1NC(=O)[C@H](Cc2c[nH]c3ccccc23)NC(=O)[C@H]([C@@H](C)CC)NC(=O)[C@@H](N)CSSC[C@@H](C(=O)O)NC(=O)[C@H](Cc2c[nH]c3ccccc23)NC(=O)CNC(=O)[C@H](CO)NC(=O)CNC(=O)[C@H](CC(N)=O)NC(=O)[C@@H]2CCCN2C(=O)[C@H](CC(C)C)NC(=O)[C@H]([C@@H](C)O)NC(=O)CNC(=O)[C@H](Cc2c[nH]cn2)NC(=O)[C@H](CO)NC(=O)[C@@H]2CCCN2C(=O)[C@H](CC(=O)O)NC(=O)[C@H](Cc2c[nH]cn2)NC(=O)[C@H](CC(C)C)NC(=O)CNC1=O [INGAP-19C] (H-CIWIGLHDPSHGTLPNGSGWC-OH; disulfide 1-21) | more effective than INGAP-P or INGAP-PC; also recorded: equipotent to linear 19-mer (INGAP-19); also recorded: higher molar efficiency than INGAP-P | 3.10±0.48 fold | islet cell neogenesis |  |  |  |  |  |  |  |  |  |  |  |  |  |  |  |  |  | Erk½ activation over time (fold change vs 0 min) (Erk½): slightly stronger and more prolonged response; Time at which the decline in fasting glycemia occurred ([1]; 500 mg IP daily): 3 weeks; Average pancreatic weight ([1]; after 10 weeks of treatment): equal to the weight of non-diabetic pancreata

From US20160002310A1, “MODIFIED INGAP PEPTIDES FOR TREATING DIABETES” (THE ROYAL INSTITUTE FOR THE ADVANCEMENT OF LEARNING/MCGILL …, priority 2013, published 2016)
